{"sequences": {"note": "Protein sequences, listed by entry. Tags and fused reporters are not part of them. Lines headed by an entry give the natural chain unless they say otherwise; changes in a name come on top.", "UniProt Q5UIP0": "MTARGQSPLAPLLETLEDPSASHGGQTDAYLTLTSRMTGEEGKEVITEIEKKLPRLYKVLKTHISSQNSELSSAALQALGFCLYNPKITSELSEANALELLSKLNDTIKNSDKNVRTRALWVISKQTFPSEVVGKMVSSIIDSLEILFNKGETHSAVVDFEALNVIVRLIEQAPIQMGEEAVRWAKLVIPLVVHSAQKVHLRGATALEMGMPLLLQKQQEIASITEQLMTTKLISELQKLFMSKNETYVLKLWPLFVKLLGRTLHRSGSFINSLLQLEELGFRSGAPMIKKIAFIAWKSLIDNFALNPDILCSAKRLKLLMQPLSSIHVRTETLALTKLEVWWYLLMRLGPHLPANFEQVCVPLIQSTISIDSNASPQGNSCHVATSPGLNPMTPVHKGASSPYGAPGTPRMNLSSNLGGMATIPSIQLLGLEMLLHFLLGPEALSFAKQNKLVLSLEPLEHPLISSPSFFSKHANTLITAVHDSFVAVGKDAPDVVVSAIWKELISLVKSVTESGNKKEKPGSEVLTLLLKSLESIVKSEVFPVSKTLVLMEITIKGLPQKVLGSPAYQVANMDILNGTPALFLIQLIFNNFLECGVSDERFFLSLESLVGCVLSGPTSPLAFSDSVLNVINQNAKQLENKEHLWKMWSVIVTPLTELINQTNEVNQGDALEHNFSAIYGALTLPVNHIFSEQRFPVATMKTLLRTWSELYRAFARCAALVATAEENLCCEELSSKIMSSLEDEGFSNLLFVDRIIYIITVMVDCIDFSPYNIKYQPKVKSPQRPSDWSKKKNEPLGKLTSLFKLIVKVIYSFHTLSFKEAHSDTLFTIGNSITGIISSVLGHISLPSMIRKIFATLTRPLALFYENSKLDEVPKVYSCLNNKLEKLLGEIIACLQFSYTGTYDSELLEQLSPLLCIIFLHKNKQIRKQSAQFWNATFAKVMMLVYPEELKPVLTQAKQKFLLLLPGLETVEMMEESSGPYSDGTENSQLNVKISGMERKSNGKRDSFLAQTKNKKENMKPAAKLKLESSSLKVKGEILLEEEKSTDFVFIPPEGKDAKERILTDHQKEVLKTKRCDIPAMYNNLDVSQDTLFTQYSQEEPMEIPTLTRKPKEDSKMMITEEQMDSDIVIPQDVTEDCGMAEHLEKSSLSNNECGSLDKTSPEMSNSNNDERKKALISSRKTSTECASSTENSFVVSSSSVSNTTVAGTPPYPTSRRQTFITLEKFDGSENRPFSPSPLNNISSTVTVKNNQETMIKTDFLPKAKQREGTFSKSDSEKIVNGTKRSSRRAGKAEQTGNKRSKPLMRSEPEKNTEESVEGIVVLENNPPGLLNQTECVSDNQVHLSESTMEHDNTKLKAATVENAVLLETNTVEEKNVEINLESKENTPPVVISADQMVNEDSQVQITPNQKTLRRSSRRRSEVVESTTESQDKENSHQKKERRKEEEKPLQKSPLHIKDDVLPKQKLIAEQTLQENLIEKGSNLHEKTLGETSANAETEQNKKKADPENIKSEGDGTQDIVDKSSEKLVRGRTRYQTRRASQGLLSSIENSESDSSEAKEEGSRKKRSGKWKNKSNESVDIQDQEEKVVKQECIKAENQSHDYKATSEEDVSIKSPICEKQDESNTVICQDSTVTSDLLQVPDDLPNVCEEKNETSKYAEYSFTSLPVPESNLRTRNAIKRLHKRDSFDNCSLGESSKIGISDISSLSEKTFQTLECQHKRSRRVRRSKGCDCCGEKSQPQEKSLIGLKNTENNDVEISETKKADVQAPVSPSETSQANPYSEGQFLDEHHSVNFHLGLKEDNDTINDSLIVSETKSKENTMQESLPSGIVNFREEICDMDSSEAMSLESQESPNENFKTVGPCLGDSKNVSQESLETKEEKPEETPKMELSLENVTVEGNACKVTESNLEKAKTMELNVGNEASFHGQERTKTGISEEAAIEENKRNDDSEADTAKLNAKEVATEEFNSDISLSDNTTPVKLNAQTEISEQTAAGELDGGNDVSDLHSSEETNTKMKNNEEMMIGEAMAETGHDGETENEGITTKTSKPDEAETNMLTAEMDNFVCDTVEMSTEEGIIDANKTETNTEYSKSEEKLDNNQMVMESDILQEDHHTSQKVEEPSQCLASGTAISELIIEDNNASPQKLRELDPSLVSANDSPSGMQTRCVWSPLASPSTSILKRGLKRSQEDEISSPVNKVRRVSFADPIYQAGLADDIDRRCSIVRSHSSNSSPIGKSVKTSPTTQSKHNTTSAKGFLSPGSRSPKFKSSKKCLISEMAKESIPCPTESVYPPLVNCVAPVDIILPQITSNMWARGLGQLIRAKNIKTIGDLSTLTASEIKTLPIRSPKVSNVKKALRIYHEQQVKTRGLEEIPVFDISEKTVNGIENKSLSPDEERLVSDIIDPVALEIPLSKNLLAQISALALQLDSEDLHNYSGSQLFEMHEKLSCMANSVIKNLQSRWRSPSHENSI", "UniProt Q06587": "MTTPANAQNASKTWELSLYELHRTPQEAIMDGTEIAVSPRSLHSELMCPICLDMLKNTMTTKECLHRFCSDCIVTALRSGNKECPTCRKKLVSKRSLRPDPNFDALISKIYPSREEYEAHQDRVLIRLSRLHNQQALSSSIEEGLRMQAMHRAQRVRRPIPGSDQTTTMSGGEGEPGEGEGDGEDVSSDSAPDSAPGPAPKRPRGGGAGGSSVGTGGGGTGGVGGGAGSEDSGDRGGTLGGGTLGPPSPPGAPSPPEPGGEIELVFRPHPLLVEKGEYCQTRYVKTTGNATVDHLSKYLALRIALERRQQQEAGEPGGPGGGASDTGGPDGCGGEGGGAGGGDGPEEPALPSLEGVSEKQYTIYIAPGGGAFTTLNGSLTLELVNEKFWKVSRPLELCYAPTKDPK", "UniProt O00584, whole entry, looked up": "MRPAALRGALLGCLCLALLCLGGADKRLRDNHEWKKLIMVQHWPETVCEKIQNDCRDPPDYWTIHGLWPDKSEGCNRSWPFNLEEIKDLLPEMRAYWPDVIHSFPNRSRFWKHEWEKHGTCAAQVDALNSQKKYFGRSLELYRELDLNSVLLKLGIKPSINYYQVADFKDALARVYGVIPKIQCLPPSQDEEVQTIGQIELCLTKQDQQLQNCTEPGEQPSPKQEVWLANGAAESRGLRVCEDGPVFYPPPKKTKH", "UniProt P40938, whole entry, looked up": "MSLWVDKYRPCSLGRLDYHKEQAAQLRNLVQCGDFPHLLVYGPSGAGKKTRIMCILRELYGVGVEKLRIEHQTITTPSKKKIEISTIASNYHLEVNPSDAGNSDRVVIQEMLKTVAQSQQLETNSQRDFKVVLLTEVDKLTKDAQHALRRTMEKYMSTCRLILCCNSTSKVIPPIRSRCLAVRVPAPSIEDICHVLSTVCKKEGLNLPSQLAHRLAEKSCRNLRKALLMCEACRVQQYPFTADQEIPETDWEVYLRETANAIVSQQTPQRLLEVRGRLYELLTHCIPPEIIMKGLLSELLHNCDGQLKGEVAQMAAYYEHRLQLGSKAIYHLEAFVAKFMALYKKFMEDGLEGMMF", "UniProt Q13129": "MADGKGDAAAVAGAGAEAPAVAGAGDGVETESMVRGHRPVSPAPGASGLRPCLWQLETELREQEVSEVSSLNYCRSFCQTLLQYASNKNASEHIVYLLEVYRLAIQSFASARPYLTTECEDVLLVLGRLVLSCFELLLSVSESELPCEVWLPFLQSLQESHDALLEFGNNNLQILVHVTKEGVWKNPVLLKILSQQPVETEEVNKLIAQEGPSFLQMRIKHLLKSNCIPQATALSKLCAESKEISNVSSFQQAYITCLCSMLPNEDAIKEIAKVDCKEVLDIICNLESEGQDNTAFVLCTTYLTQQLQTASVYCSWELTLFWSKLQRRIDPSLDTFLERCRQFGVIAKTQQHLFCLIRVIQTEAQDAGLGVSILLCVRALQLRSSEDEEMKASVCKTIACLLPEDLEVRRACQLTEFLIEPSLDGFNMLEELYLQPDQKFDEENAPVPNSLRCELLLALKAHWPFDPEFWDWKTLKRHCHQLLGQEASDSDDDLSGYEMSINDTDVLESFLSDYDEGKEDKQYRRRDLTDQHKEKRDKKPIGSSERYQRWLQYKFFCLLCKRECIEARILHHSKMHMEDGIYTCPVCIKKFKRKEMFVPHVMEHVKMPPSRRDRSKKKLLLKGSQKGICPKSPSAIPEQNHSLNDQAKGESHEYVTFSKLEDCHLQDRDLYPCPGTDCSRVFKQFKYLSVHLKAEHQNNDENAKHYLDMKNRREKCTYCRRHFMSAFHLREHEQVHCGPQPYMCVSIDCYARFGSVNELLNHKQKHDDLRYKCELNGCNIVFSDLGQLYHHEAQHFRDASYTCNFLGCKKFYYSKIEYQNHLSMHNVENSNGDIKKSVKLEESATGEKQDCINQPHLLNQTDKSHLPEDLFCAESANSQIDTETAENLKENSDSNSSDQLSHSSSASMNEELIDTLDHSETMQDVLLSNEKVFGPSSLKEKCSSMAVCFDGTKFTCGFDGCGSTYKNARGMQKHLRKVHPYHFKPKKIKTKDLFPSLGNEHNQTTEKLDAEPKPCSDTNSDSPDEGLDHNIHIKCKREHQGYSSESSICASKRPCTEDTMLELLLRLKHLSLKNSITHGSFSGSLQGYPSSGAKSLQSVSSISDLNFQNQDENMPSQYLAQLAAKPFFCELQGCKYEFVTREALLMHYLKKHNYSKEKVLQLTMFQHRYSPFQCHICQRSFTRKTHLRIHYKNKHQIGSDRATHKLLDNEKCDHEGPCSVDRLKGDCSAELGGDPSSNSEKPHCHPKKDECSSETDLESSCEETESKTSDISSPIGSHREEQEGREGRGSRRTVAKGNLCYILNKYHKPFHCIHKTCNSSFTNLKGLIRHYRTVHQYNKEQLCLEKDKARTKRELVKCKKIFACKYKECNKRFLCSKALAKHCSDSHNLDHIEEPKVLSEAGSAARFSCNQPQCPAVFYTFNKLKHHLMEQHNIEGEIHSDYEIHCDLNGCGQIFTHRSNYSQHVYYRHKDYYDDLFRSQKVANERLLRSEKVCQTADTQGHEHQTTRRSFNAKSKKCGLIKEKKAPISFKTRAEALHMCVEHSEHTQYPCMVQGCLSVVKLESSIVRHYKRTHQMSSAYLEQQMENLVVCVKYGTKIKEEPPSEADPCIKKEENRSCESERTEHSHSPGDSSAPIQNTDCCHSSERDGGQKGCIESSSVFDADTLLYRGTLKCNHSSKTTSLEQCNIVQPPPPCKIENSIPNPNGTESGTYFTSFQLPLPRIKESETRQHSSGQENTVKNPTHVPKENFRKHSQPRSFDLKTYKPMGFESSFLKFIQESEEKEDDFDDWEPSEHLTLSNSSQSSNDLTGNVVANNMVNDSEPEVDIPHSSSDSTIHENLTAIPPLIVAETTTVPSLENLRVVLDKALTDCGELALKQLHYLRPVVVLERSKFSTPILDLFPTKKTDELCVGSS", "UniProt P51606": "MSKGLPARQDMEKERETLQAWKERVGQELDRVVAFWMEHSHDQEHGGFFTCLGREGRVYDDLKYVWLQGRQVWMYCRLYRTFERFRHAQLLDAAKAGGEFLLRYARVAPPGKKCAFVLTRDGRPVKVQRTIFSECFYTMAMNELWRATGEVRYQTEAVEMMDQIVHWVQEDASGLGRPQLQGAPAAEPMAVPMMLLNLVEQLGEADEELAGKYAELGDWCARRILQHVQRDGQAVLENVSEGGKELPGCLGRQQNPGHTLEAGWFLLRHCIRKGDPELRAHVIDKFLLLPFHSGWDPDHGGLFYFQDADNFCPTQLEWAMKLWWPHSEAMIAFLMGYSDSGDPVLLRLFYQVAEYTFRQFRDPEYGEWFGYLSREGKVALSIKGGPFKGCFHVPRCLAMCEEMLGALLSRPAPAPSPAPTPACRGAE", "UniProt Q9H9A7": "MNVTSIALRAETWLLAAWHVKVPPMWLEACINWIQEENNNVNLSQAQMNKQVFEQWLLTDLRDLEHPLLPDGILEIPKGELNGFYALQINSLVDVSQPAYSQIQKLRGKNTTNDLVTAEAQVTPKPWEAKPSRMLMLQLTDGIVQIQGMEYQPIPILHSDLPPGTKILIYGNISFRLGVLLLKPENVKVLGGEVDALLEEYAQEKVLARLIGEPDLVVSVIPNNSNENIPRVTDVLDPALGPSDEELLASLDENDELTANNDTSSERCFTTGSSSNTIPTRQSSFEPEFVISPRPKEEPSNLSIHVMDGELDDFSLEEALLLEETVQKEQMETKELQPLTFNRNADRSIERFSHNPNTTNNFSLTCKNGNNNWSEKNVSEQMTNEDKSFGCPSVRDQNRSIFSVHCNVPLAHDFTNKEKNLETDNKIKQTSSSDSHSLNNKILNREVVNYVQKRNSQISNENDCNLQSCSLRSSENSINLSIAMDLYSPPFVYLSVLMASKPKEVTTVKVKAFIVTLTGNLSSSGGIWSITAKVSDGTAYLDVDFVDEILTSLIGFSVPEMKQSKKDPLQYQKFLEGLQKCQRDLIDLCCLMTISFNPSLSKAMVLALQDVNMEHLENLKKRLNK"}, "source": "the supplement of paper PMC12067093", "about": "“Discovery and optimisation of a covalent ligand for TRIM25 and its application to targeted protein ubiquitination” (Chemical Science, 2025)", "compound": "CC1Cc2ccccc2N1C(=O)C1CCCN(C1)C(=O)CCl (mixture of isomers) [TRIM25 ligand 11 (diastereomer mixture)]", "assay": "probe-labelled cysteine peptide fold change vs DMSO (competition) (log2 fold change); higher = less target engagement (more negative = stronger competition)", "details": "THP-1, incubation time: 4 h", "note": "Some of the results follow.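 Also: competitive chemoproteomic profiling in live THP-1 cells with an iodoacetamide desthiobiotin (IA-DTB) probe, comparing probe-labelled peptide intensities in compound-treated cells against DMSO-treated controls.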"}
{"target": "REXO4_Q9GZR2_248_ALALDCEMVGVGPK (UniProt Q9GZR2)", "values": [{"measurement": "probe-labelled cysteine peptide fold change", "setting": "10 µM", "value": -0.04}, {"measurement": "probe-labelled cysteine peptide fold change", "setting": "50 µM", "value": 0.0782}]}
{"target": "RHOT2_Q8IXI1_297_RFGYSDALELTADYLSPLIHVPPGCSTELNHLGYQFVQR (UniProt Q8IXI1)", "values": [{"measurement": "probe-labelled cysteine peptide fold change", "setting": "10 µM", "value": 0.156}, {"measurement": "probe-labelled cysteine peptide fold change", "setting": "50 µM", "value": 0.358}]}
{"target": "RGMB_Q6NW40_226_ITIIFKAHHECTDQK (UniProt Q6NW40)", "values": [{"measurement": "probe-labelled cysteine peptide fold change", "setting": "10 µM", "value": -0.5}, {"measurement": "probe-labelled cysteine peptide fold change", "setting": "50 µM", "value": -0.619}]}
{"target": "RIPK3_Q9Y572_365_KCPSLTK (UniProt Q9Y572)", "values": [{"measurement": "probe-labelled cysteine peptide fold change", "setting": "10 µM", "value": 0.0674}, {"measurement": "probe-labelled cysteine peptide fold change", "setting": "50 µM", "value": -0.0663}]}
{"target": "RFFL_Q8WZ73_123_DYLSLHDISTEMCR (UniProt Q8WZ73)", "values": [{"measurement": "probe-labelled cysteine peptide fold change", "setting": "10 µM", "value": 0.169}, {"measurement": "probe-labelled cysteine peptide fold change", "setting": "50 µM", "value": 0.211}]}
{"target": "RIF1_Q5UIP0_1865_TVGPCLGDSK (UniProt Q5UIP0)", "values": [{"measurement": "probe-labelled cysteine peptide fold change", "setting": "10 µM", "value": -0.0622}, {"measurement": "probe-labelled cysteine peptide fold change", "setting": "50 µM", "value": -0.164}]}
{"target": "RNASEH1_O60930_191_AEIHAACK (UniProt O60930)", "values": [{"measurement": "probe-labelled cysteine peptide fold change", "setting": "10 µM", "value": 0.0147}, {"measurement": "probe-labelled cysteine peptide fold change", "setting": "50 µM", "value": -0.0199}]}
{"target": "RICTOR_Q6R327_778_TISSEALDILDEACEDK (UniProt Q6R327)", "values": [{"measurement": "probe-labelled cysteine peptide fold change", "setting": "10 µM", "value": 0.0267}, {"measurement": "probe-labelled cysteine peptide fold change", "setting": "50 µM", "value": 0.192}]}
{"target": "RING1_Q06587_72_FCSDCIVTALR (UniProt Q06587)", "values": [{"measurement": "probe-labelled cysteine peptide fold change", "setting": "10 µM", "value": 0.349}, {"measurement": "probe-labelled cysteine peptide fold change", "setting": "50 µM", "value": 0.315}]}
{"target": "RILPL2_Q969X0_161_SQLLVVQEELQCYK (UniProt Q969X0)", "values": [{"measurement": "probe-labelled cysteine peptide fold change", "setting": "10 µM", "value": -0.0621}, {"measurement": "probe-labelled cysteine peptide fold change", "setting": "50 µM", "value": -0.111}]}
{"target": "RNASET2_O00584_55_IQNDCR (UniProt O00584)", "values": [{"measurement": "probe-labelled cysteine peptide fold change", "setting": "10 µM", "value": -0.0179}, {"measurement": "probe-labelled cysteine peptide fold change", "setting": "50 µM", "value": -0.093}]}
{"target": "RFC3_P40938_230+233_ALLMCEACR (UniProt P40938)", "values": [{"measurement": "probe-labelled cysteine peptide fold change", "setting": "10 µM", "value": 0.11}, {"measurement": "probe-labelled cysteine peptide fold change", "setting": "50 µM", "value": 0.0343}]}
{"target": "RIC1_Q4ADV7_127_EEQCAPALNLEMR (UniProt Q4ADV7)", "values": [{"measurement": "probe-labelled cysteine peptide fold change", "setting": "10 µM", "value": -0.0426}, {"measurement": "probe-labelled cysteine peptide fold change", "setting": "50 µM", "value": -0.0612}]}
{"target": "RIPOR1_Q6ZS17_196_EYTESMCLLESELEAQLGEFHLR (UniProt Q6ZS17)", "values": [{"measurement": "probe-labelled cysteine peptide fold change", "setting": "10 µM", "value": 0.0399}, {"measurement": "probe-labelled cysteine peptide fold change", "setting": "50 µM", "value": -0.206}]}
{"target": "RFC4_P35249_48_CVDEVAFQEEVVAVLKK (UniProt P35249)", "values": [{"measurement": "probe-labelled cysteine peptide fold change", "setting": "10 µM", "value": -0.204}, {"measurement": "probe-labelled cysteine peptide fold change", "setting": "50 µM", "value": -0.325}]}
{"target": "RLF_Q13129_1317_TCNSSFTNLK (UniProt Q13129)", "values": [{"measurement": "probe-labelled cysteine peptide fold change", "setting": "10 µM", "value": -0.0044}, {"measurement": "probe-labelled cysteine peptide fold change", "setting": "50 µM", "value": 0.125}]}
{"target": "RLF_Q13129_557_FFCLLCK (UniProt Q13129)", "values": [{"measurement": "probe-labelled cysteine peptide fold change", "setting": "10 µM", "value": -0.00387}, {"measurement": "probe-labelled cysteine peptide fold change", "setting": "50 µM", "value": 0.168}]}
{"target": "REST_Q13127_402_CNLQYHFK (UniProt Q13127)", "values": [{"measurement": "probe-labelled cysteine peptide fold change", "setting": "10 µM", "value": -0.0852}, {"measurement": "probe-labelled cysteine peptide fold change", "setting": "50 µM", "value": -0.061}]}
{"target": "RFC3_P40938_164+165_LILCCNSTSK (UniProt P40938)", "values": [{"measurement": "probe-labelled cysteine peptide fold change", "setting": "10 µM", "value": -0.0991}, {"measurement": "probe-labelled cysteine peptide fold change", "setting": "50 µM", "value": 0.221}]}
{"target": "RFTN1_Q14699_527_GPVQEDKGEQLSPGGLLCGVGVEGEAVQNGPASHSR (UniProt Q14699)", "values": [{"measurement": "probe-labelled cysteine peptide fold change", "setting": "10 µM", "value": -0.257}, {"measurement": "probe-labelled cysteine peptide fold change", "setting": "50 µM", "value": -0.416}]}
{"target": "RIF1_Q5UIP0_2450_LSCMANSVIK (UniProt Q5UIP0)", "values": [{"measurement": "probe-labelled cysteine peptide fold change", "setting": "10 µM", "value": -0.0856}, {"measurement": "probe-labelled cysteine peptide fold change", "setting": "50 µM", "value": -0.177}]}
{"target": "RING1_Q06587_69_FCSDCIVTALR (UniProt Q06587)", "values": [{"measurement": "probe-labelled cysteine peptide fold change", "setting": "10 µM", "value": 0.00698}, {"measurement": "probe-labelled cysteine peptide fold change", "setting": "50 µM", "value": -0.00266}]}
{"target": "RGL2_O15211_284_DRPGHSHLCPSVR (UniProt O15211)", "values": [{"measurement": "probe-labelled cysteine peptide fold change", "setting": "10 µM", "value": 0.172}, {"measurement": "probe-labelled cysteine peptide fold change", "setting": "50 µM", "value": 0.0684}]}
{"target": "RHOT2_Q8IXI1_216_SCFGHPLAPQALEDVK (UniProt Q8IXI1)", "values": [{"measurement": "probe-labelled cysteine peptide fold change", "setting": "10 µM", "value": 0.0861}, {"measurement": "probe-labelled cysteine peptide fold change", "setting": "50 µM", "value": -0.218}]}
{"target": "RENBP_P51606_396_CLAMCEEMLGALLSR (UniProt P51606)", "values": [{"measurement": "probe-labelled cysteine peptide fold change", "setting": "10 µM", "value": 0.077}, {"measurement": "probe-labelled cysteine peptide fold change", "setting": "50 µM", "value": 0.206}]}
{"target": "RINL_Q6ZS11_421_LAHLHAACAPR (UniProt Q6ZS11)", "values": [{"measurement": "probe-labelled cysteine peptide fold change", "setting": "10 µM", "value": -0.106}, {"measurement": "probe-labelled cysteine peptide fold change", "setting": "50 µM", "value": -0.312}]}
{"target": "RET_P07949_987_LMLQCWK (UniProt P07949)", "values": [{"measurement": "probe-labelled cysteine peptide fold change", "setting": "10 µM", "value": -0.0567}, {"measurement": "probe-labelled cysteine peptide fold change", "setting": "50 µM", "value": -0.00958}]}
{"target": "RECK_O95980_902_ALQIEACNK (UniProt O95980)", "values": [{"measurement": "probe-labelled cysteine peptide fold change", "setting": "10 µM", "value": 0.173}, {"measurement": "probe-labelled cysteine peptide fold change", "setting": "50 µM", "value": -0.0638}]}
{"target": "RENBP_P51606_114_CAFVLTR (UniProt P51606)", "values": [{"measurement": "probe-labelled cysteine peptide fold change", "setting": "10 µM", "value": -0.0186}, {"measurement": "probe-labelled cysteine peptide fold change", "setting": "50 µM", "value": 0.219}]}
{"target": "RELA_Q04206_109_CIHSFQNLGIQCVK (UniProt Q04206)", "values": [{"measurement": "probe-labelled cysteine peptide fold change", "setting": "10 µM", "value": -0.0343}, {"measurement": "probe-labelled cysteine peptide fold change", "setting": "50 µM", "value": -0.156}]}
{"target": "RING1_Q06587_51_SLHSELMCPICLDMLK (UniProt Q06587)", "values": [{"measurement": "probe-labelled cysteine peptide fold change", "setting": "10 µM", "value": -0.00589}, {"measurement": "probe-labelled cysteine peptide fold change", "setting": "50 µM", "value": -0.233}]}
{"target": "RGS19_P49795_123_TEYSEENMLFWLACEELK (UniProt P49795)", "values": [{"measurement": "probe-labelled cysteine peptide fold change", "setting": "10 µM", "value": 0.234}, {"measurement": "probe-labelled cysteine peptide fold change", "setting": "50 µM", "value": 0.187}]}
{"target": "RLF_Q13129_1642_TEHSHSPGDSSAPIQNTDCCHSSER (UniProt Q13129)", "values": [{"measurement": "probe-labelled cysteine peptide fold change", "setting": "10 µM", "value": 0.166}, {"measurement": "probe-labelled cysteine peptide fold change", "setting": "50 µM", "value": -0.309}]}
{"target": "RMI1_Q9H9A7_366_FSHNPNTTNNFSLTCK (UniProt Q9H9A7)", "values": [{"measurement": "probe-labelled cysteine peptide fold change", "setting": "10 µM", "value": 0.0381}, {"measurement": "probe-labelled cysteine peptide fold change", "setting": "50 µM", "value": -0.288}]}
{"target": "RHOG_P84095_105_WHPEVCHHCPDVPILLVGTKK (UniProt P84095)", "values": [{"measurement": "probe-labelled cysteine peptide fold change", "setting": "10 µM", "value": -0.292}, {"measurement": "probe-labelled cysteine peptide fold change", "setting": "50 µM", "value": -0.278}]}
{"target": "RNASET2_O00584_121_HGTCAAQVDALNSQK (UniProt O00584)", "values": [{"measurement": "probe-labelled cysteine peptide fold change", "setting": "10 µM", "value": 0.0127}, {"measurement": "probe-labelled cysteine peptide fold change", "setting": "50 µM", "value": -0.223}]}
{"target": "RFXANK_O14593_205_CVEALLAR (UniProt O14593)", "values": [{"measurement": "probe-labelled cysteine peptide fold change", "setting": "10 µM", "value": 0.0647}, {"measurement": "probe-labelled cysteine peptide fold change", "setting": "50 µM", "value": 0.0947}]}
{"target": "RECQL_P46063_414_ADCILYYGFGDIFR (UniProt P46063)", "values": [{"measurement": "probe-labelled cysteine peptide fold change", "setting": "10 µM", "value": 0.191}, {"measurement": "probe-labelled cysteine peptide fold change", "setting": "50 µM", "value": 0.18}]}
{"target": "RMI1_Q9H9A7_406_SIFSVHCNVPLAHDFTNK (UniProt Q9H9A7)", "values": [{"measurement": "probe-labelled cysteine peptide fold change", "setting": "10 µM", "value": -0.0703}, {"measurement": "probe-labelled cysteine peptide fold change", "setting": "50 µM", "value": -0.233}]}
{"target": "RMND5A_Q9H871_328_CWYHSIFACPILR (UniProt Q9H871)", "values": [{"measurement": "probe-labelled cysteine peptide fold change", "setting": "10 µM", "value": -0.0773}, {"measurement": "probe-labelled cysteine peptide fold change", "setting": "50 µM", "value": 0.162}]}
{"target": "RFC5_P40937_73_TSTILACAK (UniProt P40937)", "values": [{"measurement": "probe-labelled cysteine peptide fold change", "setting": "10 µM", "value": -0.0102}, {"measurement": "probe-labelled cysteine peptide fold change", "setting": "50 µM", "value": -0.0904}]}
{"target": "RNF126_Q9BV68_32_CESGFIEELPEETR (UniProt Q9BV68)", "values": [{"measurement": "probe-labelled cysteine peptide fold change", "setting": "10 µM", "value": -0.0236}, {"measurement": "probe-labelled cysteine peptide fold change", "setting": "50 µM", "value": 0.0256}]}
{"target": "REEP5_Q00765_18_NCMTDLLAK (UniProt Q00765)", "values": [{"measurement": "probe-labelled cysteine peptide fold change", "setting": "10 µM", "value": -0.0793}, {"measurement": "probe-labelled cysteine peptide fold change", "setting": "50 µM", "value": -0.0586}]}
